The list shows only some results of the screen, not a fair sample: it is rich in T/C values a quarter to a half above the control, in often repeated tests (any T/C) and in doses without a T/C. Further doses and runs are listed elsewhere. T/C is the treated group as % of the vehicle group. Some entries give survivors of the animals treated and no T/C: the source holds a T/C of zero for them, seemingly a mark for toxic or unscored doses. Some doses without a T/C left all or most animals alive at the check, yet need not have been tolerated: survival well below the control is almost never listed, so the zero probably covers shortened survival too. Counts of survivors are from the toxicity check (mostly the fifth day) where no day follows; animals may have died later. Schedules are NCI's codes, read here as Q, the interval in days (D) or hours (H), X, the number of doses. Some entries were tested several times; the results are listed from low to high. Where survival is the endpoint, this PubChem deposit counts one and a half times the control or more as active, and values a quarter to a half above the control carry no call in these data; other NCI protocols may use other cut-offs. Some T/C values carry the count of animals alive at the toxicity check (mostly the fifth day); without a count, all were alive then.
Test system: CD2F1 mice, L1210 leukemia ip, survival T/C
Test: NCI In Vivo Anticancer Drug Screen. Data for tumor model L1210 Leukemia (intraperitoneal) in CD2F1 (CDF1) mice
Conditions: higher T/C = longer survival
Outline: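 Implant tumor; dose compound or vehicle; measure endpoint in both groups; report treated divided by control.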

[1] = T/C endpoint: mean survival time, dose: 100.0 mg/kg/injection, schedule: Q01DX009 (ip), vehicle: saline with Tween-80
[2] = T/C endpoint: mean survival time, dose: 200.0 mg/kg/injection, schedule: Q04DX003 (ip), vehicle: saline with Tween-80
[3] = T/C endpoint: mean survival time, dose: 400.0 mg/kg/injection, schedule: Q04DX003 (ip), vehicle: saline with Tween-80
[4] = T/C endpoint: mean survival time, dose: 200.0 mg/kg/injection, schedule: Q01DX009 (ip), vehicle: saline with Tween-80
[5] = T/C endpoint: mean survival time, dose: 200.0 mg/kg/injection, schedule: Q04DX003 (ip), vehicle: saline
[6] = T/C endpoint: mean survival time, dose: 400.0 mg/kg/injection, schedule: Q04DX003 (ip), vehicle: saline
[7] = T/C endpoint: mean survival time, dose: 100.0 mg/kg/injection, schedule: Q04DX003 (ip), vehicle: saline with Tween-80
[8] = T/C endpoint: mean survival time, dose: 400.0 mg/kg/injection, schedule: Q01DX009 (ip), vehicle: saline with Tween-80
[9] = T/C endpoint: mean survival time, dose: 50.0 mg/kg/injection, schedule: Q01DX009 (ip), vehicle: other

Nc1nc(N)c2c(Cl)c(CNc3ccc(Cl)c(Cl)c3)ccc2n1
T/C (T/C endpoint: mean survival time, dose: 12.5 mg/kg/injection, schedule: Q01DX009 (ip), vehicle: saline with Tween-80): 133 and 144 % of control | T/C (T/C endpoint: mean survival time, dose: 25.0 mg/kg/injection, schedule: Q01DX009 (ip), vehicle: saline with Tween-80): 144 % of control | T/C [1]: 141 % of control | T/C (T/C endpoint: median survival time, dose: 18.0 mg/kg/injection, schedule: Q01DX005 (ip), vehicle: saline with Tween-80): 139 % of control | T/C (T/C endpoint: median survival time, dose: 30.0 mg/kg/injection, schedule: Q01DX005 (ip), vehicle: saline with Tween-80): 139 % of control | T/C (T/C endpoint: median survival time, dose: 30.11 mg/kg/injection, schedule: Q01DX005 (ip), vehicle: saline with Tween-80): 131 % of control | T/C (T/C endpoint: median survival time, dose: 50.18 mg/kg/injection, schedule: Q01DX005 (ip), vehicle: saline with Tween-80): 144 % of control | T/C (T/C endpoint: median survival time, dose: 100.0 mg/kg/injection, schedule: Q01DX009 (ip), vehicle: saline with Tween-80): 128 and 134 % of control

COC1=CCC(OC)=C(C)C1
survivor count [2]: 6 of 6 | survivor count [3]: 1 of 6

CCOP(=S)(OCC)N1c2ccccc2Sc2ccccc21
survivor count [4]: 4 of 6

NS(=O)(=O)Cc1ccccc1
survivor count [5]: 2 of 6 | survivor count [6]: 0 of 6

c1ccc(Oc2ccc(-c3ccc(Oc4ccccc4)cc3)cc2)cc1
survivor count [7]: 6 of 6

O=C([S-])N1CCCCC1.O=C([S-])N1CCCCC1.[Ni+2]
survivor count [7]: 6 of 6 | survivor count [2]: 5 of 6 | survivor count [3]: 1 of 6

CN1CCCN(C)C1c1ccccc1
survivor count [5]: 1 of 6 | survivor count [6]: 0 of 6

C=CCN(C)N=Nc1ccc(NC(N)=O)cc1
T/C (T/C endpoint: mean survival time, dose: 18.75 mg/kg/injection, schedule: Q01DX009 (ip), vehicle: Klucel (hydroxypropylcellulose) (HPC)): 128 % of control | T/C (T/C endpoint: mean survival time, dose: 37.5 mg/kg/injection, schedule: Q01DX009 (ip), vehicle: Klucel (hydroxypropylcellulose) (HPC)): 138 and 139 % of control | T/C (T/C endpoint: mean survival time, dose: 75.0 mg/kg/injection, schedule: Q01DX009 (ip), vehicle: Klucel (hydroxypropylcellulose) (HPC)): 140 % of control [4 of 6 alive] | survivor count (T/C endpoint: mean survival time, dose: 150.0 mg/kg/injection, schedule: Q01DX009 (ip), vehicle: Klucel (hydroxypropylcellulose) (HPC)): 0 of 6

CC(N)c1ccc(OCCOc2ccc(C(C)(C)CC(C)(C)C)cc2)cc1 (stereo unspecified)
survivor count (T/C endpoint: mean survival time, dose: 50.0 mg/kg/injection, schedule: Q01DX009 (ip), vehicle: Klucel (hydroxypropylcellulose) (HPC)): 3 of 6 | survivor count (T/C endpoint: mean survival time, dose: 100.0 mg/kg/injection, schedule: Q01DX009 (ip), vehicle: Klucel (hydroxypropylcellulose) (HPC)): 0 of 6 | survivor count (T/C endpoint: mean survival time, dose: 200.0 mg/kg/injection, schedule: Q01DX009 (ip), vehicle: Klucel (hydroxypropylcellulose) (HPC)): 0 of 6

Cc1ccc(S(=O)(=O)Nc2ccccc2N(CCN(CCOS(=O)(=O)c2ccc(C)cc2)S(=O)(=O)c2ccc(C)cc2)S(=O)(=O)c2ccc(C)cc2)cc1
survivor count [7]: 3 of 3 | survivor count [3]: 3 of 3

O=C(O)C(O)C(=O)O.[NH2-].[NH2-].[Pt+2]
survivor count [5]: 9 of 10

O=C1c2cccc3cc([N+](=O)[O-])cc(c23)C(=O)N1CCN1CCCC1
T/C (T/C endpoint: mean survival time, dose: 6.0 mg/kg/injection, schedule: Q01DX009 (ip), vehicle: saline with Tween-80): 131 % of control | T/C (T/C endpoint: mean survival time, dose: 12.0 mg/kg/injection, schedule: Q01DX009 (ip), vehicle: saline with Tween-80): 137 % of control | survivor count (T/C endpoint: mean survival time, dose: 48.0 mg/kg/injection, schedule: Q01DX009 (ip), vehicle: saline with Tween-80): 2 of 6 | T/C (T/C endpoint: median survival time, dose: 25.0 mg/kg/injection, schedule: Q01DX009 (ip), vehicle: saline with Tween-80): 130 and 140 % of control | T/C (T/C endpoint: median survival time, dose: 50.0 mg/kg/injection, schedule: Q01DX009 (ip), vehicle: saline with Tween-80): 140 % of control

Nc1n[nH]c2ccccc12
T/C (T/C endpoint: median survival time, dose: 100.0 mg/kg/injection, schedule: Q01DX009 (ip), vehicle: acid diluted with saline): 127 and 128 % of control | T/C (T/C endpoint: median survival time, dose: 200.0 mg/kg/injection, schedule: Q01DX009 (ip), vehicle: acid diluted with saline): 146 % of control | survivor count (T/C endpoint: median survival time, dose: 400.0 mg/kg/injection, schedule: Q01DX009 (ip), vehicle: acid diluted with saline): 3 of 6 and 5 of 6

CN(Cc1ccccc1)CC1(CO)CC=CCC1 (stereo unspecified)
survivor count (T/C endpoint: mean survival time, dose: 300.0 mg/kg/injection, schedule: Q01DX001 (ip), vehicle: saline): 2 of 6

COc1cc(CNC(=O)CCCC2CCC2)ccc1O
survivor count [7]: 2 of 6 | survivor count [2]: 1 of 6 | survivor count [3]: 0 of 6

CCCCS(=O)C(Cl)CCC (stereo unspecified)
survivor count [3]: 2 of 6

C[C@H](C[P+](c1ccccc1)(c1ccccc1)c1ccccc1)[C@](OC(=O)c1ccccc1)(C(=O)c1ccccc1)c1ccccc1
survivor count (T/C endpoint: mean survival time, dose: 10.0 mg/kg/injection, schedule: Q01DX001 (ip), vehicle: saline with Tween-80): 3 of 6 | survivor count (T/C endpoint: mean survival time, dose: 20.0 mg/kg/injection, schedule: Q01DX001 (ip), vehicle: saline with Tween-80): 0 of 6

CCCCCCCCCCCCCCCCCC[n+]1cccc(C(=O)c2ccccc2)c1
survivor count (T/C endpoint: mean survival time, dose: 37.5 mg/kg/injection, schedule: Q01DX001 (ip), vehicle: other): 3 of 6

Clc1nc(Cl)n2ccncc12
survivor count [1]: 0 of 6 | survivor count [4]: 0 of 6 | survivor count [8]: 0 of 6

NC1CCCCC1N.O=C([O-])c1ccc(N=Nc2cccc([N+](=O)[O-])c2)cc1[O-].[Pt+4]
T/C (T/C endpoint: median survival time, dose: 50.0 mg/kg/injection, schedule: Q04DX003 (ip), vehicle: saline with Tween-80): 125 % of control | T/C (T/C endpoint: median survival time, dose: 100.0 mg/kg/injection, schedule: Q04DX003 (ip), vehicle: saline with Tween-80): 141 % of control

CC(C)N(CC(=O)O)CC(=O)O
survivor count (T/C endpoint: mean survival time, dose: 400.0 mg/kg/injection, schedule: Q01DX001 (ip), vehicle: saline): 2 of 4

O=NN(CCCl)C(=O)NCCc1cccc[n+]1[O-]
T/C (T/C endpoint: mean survival time, dose: 12.5 mg/kg/injection, schedule: Q01DX001 (ip), vehicle: water): 142 % of control

C#CC(C)O (stereo unspecified)
survivor count [1]: 1 of 6 | survivor count (T/C endpoint: mean survival time, dose: 100.0 mg/kg/injection, schedule: Q01DX009 (ip), vehicle: saline): 0 of 6 | survivor count [4]: 0 of 6 | survivor count [8]: 0 of 6

c1ccc2c(CN3CC3)c[nH]c2c1
T/C [9]: 137 % of control | survivor count [9]: 5 of 6 | survivor count (T/C endpoint: mean survival time, dose: 75.0 mg/kg/injection, schedule: Q01DX009 (ip), vehicle: other): 3 of 6 | survivor count (T/C endpoint: mean survival time, dose: 100.0 mg/kg/injection, schedule: Q01DX009 (ip), vehicle: other): 1 of 6 | survivor count [8]: 2 of 6

CCC[S][Pb]([c]1ccccc1)([c]1ccccc1)[c]1ccccc1
survivor count (T/C endpoint: mean survival time, dose: 100.0 mg/kg/injection, schedule: Q01DX001 (ip), vehicle: Klucel (hydroxypropylcellulose) (HPC)): 2 of 6 | survivor count (T/C endpoint: mean survival time, dose: 200.0 mg/kg/injection, schedule: Q01DX001 (ip), vehicle: Klucel (hydroxypropylcellulose) (HPC)): 0 of 6 | survivor count (T/C endpoint: mean survival time, dose: 400.0 mg/kg/injection, schedule: Q01DX001 (ip), vehicle: Klucel (hydroxypropylcellulose) (HPC)): 0 of 6

CCN1CCCC(Nc2nc(Nc3ccc(Cl)c(Cl)c3)nc3ccc(Cl)cc23)C1 (stereo unspecified)
survivor count [3]: 0 of 6

O=[N+]([O-])c1ccc(Sc2ncnc3nc[nH]c23)c([N+](=O)[O-])c1
T/C (T/C endpoint: mean survival time, dose: 7.4 mg/kg/injection, schedule: Q01DX005 (ip), vehicle: other): 137 % of control | T/C (T/C endpoint: mean survival time, dose: 11.0 mg/kg/injection, schedule: Q01DX005 (ip), vehicle: other): 146 % of control

CC1(C)N=C(N)N=C(N)N1c1cccc(/C=C(\C#N)c2ccccc2)c1
survivor count (T/C endpoint: mean survival time, dose: 400.0 mg/kg/injection, schedule: Q04DX002 (ip), vehicle: Klucel (hydroxypropylcellulose) (HPC)): 0 of 3

CN(C)C(=O)Sc1ccc(S(=O)(=O)F)cc1F
survivor count (T/C endpoint: mean survival time, dose: 400.0 mg/kg/injection, schedule: Q04DX002 (ip), vehicle: saline with Tween-80): 1 of 3

C/C(Cl)=C\CNc1ncnc2c1ncn2C1OC(CO)C(O)C1O (stereo unspecified)
survivor count (T/C endpoint: mean survival time, dose: 200.0 mg/kg/injection, schedule: Q01DX005 (ip), vehicle: distilled water + Tween-80): 3 of 6 | survivor count (T/C endpoint: mean survival time, dose: 400.0 mg/kg/injection, schedule: Q01DX005 (ip), vehicle: distilled water + Tween-80): 0 of 6

From PubChem BioAssay AID256 (DTP/NCI, 2004)
